We go through one substance from article PMC5945610.

By UniProt entry, the sequences of proteins in these tests, tags left out.
UniProt Q86VY4: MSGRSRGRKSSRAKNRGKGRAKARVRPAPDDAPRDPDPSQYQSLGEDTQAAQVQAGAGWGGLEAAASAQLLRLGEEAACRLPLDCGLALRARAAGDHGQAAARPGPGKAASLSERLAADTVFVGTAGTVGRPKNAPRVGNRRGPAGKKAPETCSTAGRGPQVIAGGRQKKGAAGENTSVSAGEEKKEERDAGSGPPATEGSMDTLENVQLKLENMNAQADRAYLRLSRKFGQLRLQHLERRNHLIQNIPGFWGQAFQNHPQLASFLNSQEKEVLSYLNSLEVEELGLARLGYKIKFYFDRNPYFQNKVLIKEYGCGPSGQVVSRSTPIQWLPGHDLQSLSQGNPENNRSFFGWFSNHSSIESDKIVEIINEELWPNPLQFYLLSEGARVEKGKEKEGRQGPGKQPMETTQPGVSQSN

Results are given in words; binding and its absence hold for the method and conditions named. In cells and extracts the contact can be indirect. Some entries that bind do so weakly or less than the wild type.

The target in the test is TSPYL5 transfected into A549 cells (human) (UniProt Q86VY4). The test can be described thus: co-IP; A549 cells co-transfected with TSPYL5, with TSPY1 overexpressed or knocked down; precipitation with a TSPYL5 antibody, blot for USP7.

Take “USP7 of A549 cells (from UniProt Q93009 1-1102) (enzyme)”: the binding result is “binds”.
